These results are taken from patent publication US20180305451A1.

The target of test [1] is HIDE1_HH-1 (Human ECD + human IgG1 Fc mutated C220S at hinge), without SP (human). The experiment in a line: SPR (ProteOn XPR 36): HIDE1-HH-1 captured on goat anti-human Fc GLC chip, Fab periplasmic extract injected 2 min, undiluted and 3-fold dilutions, 10 min dissociation.
Test [2] deals with T1, human HIDE1 (human) (UniProt A8MVS5).
T1 sequence: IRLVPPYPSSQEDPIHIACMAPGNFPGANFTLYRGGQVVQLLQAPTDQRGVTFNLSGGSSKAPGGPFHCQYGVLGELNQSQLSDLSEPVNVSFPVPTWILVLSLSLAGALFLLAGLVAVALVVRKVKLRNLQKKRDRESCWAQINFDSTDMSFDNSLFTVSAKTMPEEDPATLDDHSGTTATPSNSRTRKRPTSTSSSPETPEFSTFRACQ
The experiment in a line: FACS on 293T-huHIDE1 cells, human IgG4.

Test [3] concerns the target T1, human HIDE1 (human). Put plainly: FACS, whole blood of 3 healthy donors. (A flow cytometer gives signals particle by particle.)
Test [4] has as its target T1, human HIDE1 (human). The experiment in a line: FACS, endogenous HIDE1 on U-937, THP-1 and HL-60 cells.
The target in test [5] is human HIDE1-flag (human) (UniProt A8MVS5). Put plainly: Western blot of whole cell extracts, goat anti-mouse HRP. For orientation: In western blotting, separated proteins are transferred to a membrane and probed.
The target in test [6] is T1, human HIDE1 (human). Put plainly: flow cytometry on whole blood of 3 healthy donors, gated lymphocytes, monocytes, neutrophils; against isotype control.
The target of test [7] is T1, human HIDE1 (human). The experiment in a line: FACS on human cell lines (endogenous HIDE1), controls Mouse IgG1 and secondary only, goat anti-mouse PE.
For test [8], the target named is T1, human HIDE1 (human). The experiment in a line: flow cytometry on whole blood of 3 AML patients, gated CD11b subsets and CD3+ cells; against isotype control.
The target in test [9] is human HIDE1-flag (human) (UniProt A8MVS5). The experiment in a line: FACS on HEK293 pMSCV human HIDE1 flag cells, controls Mouse IgG1 and HEK293 pMSCV cells, goat anti-mouse PE.
Test [10] shares this target. The experiment in a line: FACS, CHO-S OKT3 human HIDE1 Flag cells.
The target in test [11] is T1, human HIDE1 (human). The experiment in a line: FACS, whole blood of 3 AML patients.
For test [12], the target named is T1, human HIDE1 (human). The experiment in a line: FACS on PBMCs gated on CD14+ cells, Alexa 647 labelled antibody.
Test [13] deals with human HIDE1-flag (human) (UniProt A8MVS5). The experiment in a line: FACS, CHO-S OKT3 cells over-expressing human HIDE1 Flag against empty vector, 33B4-2F7-Alexa 647 at 5 ug/ml.
Test [14] shares this target. Put plainly: WB, extracts of HEK293 human HIDE1 flag cells.
The target is the same in test [15]. The experiment in a line: FACS, HEK293 human HIDE1 Flag cells.
Test [16] has as its target T1, human HIDE1 (human). The experiment in a line: FACS on HL-60 and U937 cells transfected with human HIDE1 siRNA or scrambled siRNA, clone 33B4-2F7 by the legend paragraph 113, goat anti-mouse PE.

These are yes or no findings as the source states them, for the method shown. Some binding calls cover weakened binding; strength is not graded here.

B1: CPA.12.009 Fab (A10 S398-02.A04) (Fab, V domains shown)
VH: QMQLVQSGAEVKKPGASVKVSCKASGYTFTTHAFSWVRQAPGLGLEWMGWISTYNGNTKYEQKFQGRVTLTTDSSTNTAYMELRSLRSDDTAVYYCVRDSRAFDVWGQGTMVTVSS
VL: DIQLTQSPSFLSASVGDRVTITCRASQGINSYLAWYQQKPGAAPKLLIYAASTLQSGVPSRFSGSGSGTEFTLTISSLQPEDFATYYCQQLNTYPLIFGQGTRLEIKR
Consider B1, for which, in [1], the binding result is “binds”.

B2: CPA.12.009 human IgG4 (antibody, V domains shown)
VH: B1 VH
VL: B1 VL
For the molecule B2, the binding entry in [2] is “binds”.

B3: Mouse anti human HIDE1 mAb (Biotem #33B4-2F7) (antibody, mouse IgG1, kappa, V domains shown)
VH: QIQLVQSGPELKKPGETVKISCKASGYTFTNYGMNWVKQAPGKGLKWMGWINTYTGEPTYADDFKGRFAFSLETPASTAYLQINNLKNEDMATYFCVREHFYALDYWGQGTSVTVSS
VL: KIVLTQSPASLAVSLRQRATISCRASESVDSYGNSFMHWYQQKPGQPPKLLIYRASNLESGVPARFSGSGSRTDFTLTIDPVEADDAATYYCQQSNEDPRTFGGGTKLEIKR
As to B3, the binding entry in [3], in [4], in test [5], in test [6], in test [7] and in test [8] was “binds” each time. For the same molecule, the binding result in test [9], in [10], in test [11], in test [12], in [13] and in test [14] was “binds” throughout. The binding result in test [15] and in [16] was “binds” throughout.

B4: CPA.12.004 human IgG4 (antibody, V domains shown)
VH: EVQLVETGGGLIQPGRSLRLSCVASDFRFSNHAMHWVRQAPGKELEWVAVISSDGSNRQYAYSVKGRFTISRDNSKNTLYLEMNILGPEDTAVYFCVRSHLGPEWYYGMDVWGQGTTVTVSS
VL: DIQMTQSPSSLSTSVGDSVTITCRSSQSISTFLSWFQHKPGKAPNLLIYDASSLQSGVPSRFSGSGSGTDFTLTISSLQPEDFATYYCQQSDYLPFTFGPGTKVEIKR
B4: in test [2], the binding result is “binds”.

B5: CPA.12.013 human IgG4 (antibody, V domains shown)
VH: B4 VH
VL: DIQMTQSPSSLSASVGDRVTITCQASHDIRKFLNWYQQHPGKAPKLLIYDAAYSEIGVPSRFSGGGSGTDFTFTINNLQPDDFATYYCQQYESLPFTFGPGTKVDIKR
In the case of B5, the binding entry in test [2] is recorded as “binds”.

B6: CPA.12.002 human IgG4 (antibody, V domains shown)
VH: EVQLVESGGGLVQPGRSLRLSCAASGFTFSSYAMHWVRQVPGKGLEWVAVISYDGSNKYYADSVKGRFTISRDNSKNTLYLQMNSLRAEDTAVYYCAKPMYSSGWYPLGYWGQGTLVTVSS
VL: DIVMTQTPLSLPVTPGQPASISCRSSQSPLDTDGNTYLDWYLQRPGQSPQLLIYTLSNRASGVPDRFSGSGSGTDFTLKISRVEAEDVGIYYCMQRIQYPLTFGPGTRLEIKR
As for B6, the binding result in [2] was “binds”.

B7: CPA.12.014 human IgG4 (antibody, V domains shown)
VH: QVTLKESGPALVTPTQNLTLTCTVSGGSISSSSYYWGWIRQPPGKGLEWIGSIYYSGSTYYNPSLKSRVTISVDTSKNQFSLKLSSVTAADTAVYYCARRRNSSGWFYFDYWGQGTLVTVSS
VL: QSVLTQPPSVSGAPRQRVTISCSGSRSNIGDNAVNWYQHPPGKAPKLLIYYDDLLPSGVSDRFSGSKSGTSASLAISGLQSEDEADYYCATWDDSLNGHVFGTGTKLTVLG
B7: the binding entry in test [2] is given as “binds”.

B8: CPA.12.007 human IgG4 (antibody, V domains shown)
VH: EVQLVESGGGVVQPGESLRLSCAASGFTFSSYGFHWVRQSPGEGLEWLAVISYDGTSKSYADSVKGRFTVSRDNSKETLYLQLSSLRREDTALYYCARDTWGYYYGMDVWGQGTTVTVSS
VL: DIQMTQSPSFLSGSVGDRVSISCRASQDIRSHLAWYQRKPGEAPKLLIYTASSLQGGVPLRFSGSGSGTEFTLTISSLQPEDSATYYCQHLHLYPLTFGGGTKLEIKR
Take B8: the binding entry in test [2] was “binds”.

B9: Mouse anti human HIDE1 mAb (Biotem #39A7-3A10-3G8) (antibody, mouse IgG1, kappa, V domains shown)
VH: QVQLQQSGAELVRPGASVKLSCKALGYTFTDYEMHWVKQTPVHGLEWIGDIYPGSGGTAYNQKFKGKATLTADKSSSTAYMELSSLTSEDSAVYYCTRKGRSFAYWGQGTLVTVSA
VL: NIVMTQSPKSMSMSVGERVTLSCKASENVDTYVSWYQQKPEQSPKLLIYGASNRYTGVPDRFTGSGSATDFTLIISSVQAEDLADYHCGQSYRYPLTFGAGTKLELKR
As to B9, the binding result in test [5], in test [9], in [14] and in [15] was “binds” throughout.

B10: CPA.12.006 human IgG4 (antibody, V domains shown)
VH: EVQLVESGGGVVQPGRSLRLSCAASGFTFSSFAMHWVRQAPGKGPEWLGIILYEGGHVVYADSVRGRLTISRDNSKNTLYLQMDSLRDEDTAVYYCAKGFYHAFDVWGQGTMVTVSS
VL: QAVLTQPASLSASPGASASLTCTLRSGINVGTYRIYWYQQKPGSPPQYLLRYKSDSDKQQGSGVPSRFSGSKDASANAGILLISGLQSEDEADYYCMIWHSSAWVFGGGTQLTVLG
On to B10, for which, in test [2], the binding entry is on record as “binds”.

B11: CPA.12.003 human IgG4 (antibody, V domains shown)
VH: QVQLQESGPGLVTPSETLSLTCTVSGGSISSVSYYWGWVRQPPGKGLEWIGSIYYSGTTAHNPSLKSRVTMAVDTSKNQFSLSLSSVTAADTAVYFCARGWRYYEDYYFDHWGQGTLVTVSS
VL: DIQMTQSPSTLSASVGDRVTITCRASQSINRWLAWYQQKPGKAPKILIYTASSLESGVPSRFSGSGSGTEFTLTISSLQPDDFATYYCQQYNSYPITFGQGTRLEIKR
With B11, the binding entry in test [2] is “binds”.

B12: CPA.12.008 human IgG4 (antibody, V domains shown)
VH: B11 VH
VL: AIRMTQSPSSLSASVGDRVTITCQASQDISNYLNWYQQKPGKAPKSLIYAASSLQSGVPSKFSGSGSGTDFTLTISSLQPEDFATYYCQQYYSYPLTFGGGTKVEIKR
Consider B12, for which, in test [2], the binding result is given as “binds”.

B13: CPA.12.015 human IgG4 (antibody, V domains shown)
VH: QVQLQESGPGLVKPSETLSLTCTVSGGSISSSSYYWGWIRQPPGKGLEWIGSIYYSGSTHYNPSLKSRVTISVDTSKNQFSLKLSSVTAADTAVYYCARVYYGSGTGGAFDIWGQGTMVTVSS
VL: QSVLTQPPSVSGAPGQRVTISCTGSSSNIGAAYDVHWYQQLPGTAPKLLIYGDTIRPSGVPDRFSGSKSGTSASLAITGLQAEDEADYYCQSYDSSLSGSWVFGGGTQLTVLG
As for B13, the binding result in [2] was “binds”.
